“And” between values parts separate entries of the source, which are not always exact repeats. Equal entries are not always repeated. Out of some 410,000 compounds screened, about 18,000 (4.4%) were called active. Inconclusive results, whose numbers are uncertain, are shown with a selection of clear calls. No stated cut-off is given here; in the data, active means activity change below about -60%; inconclusive means no clear call, values can overlap the other calls; inactive means above about -39%.
Assay: qHTS Assay for inhibitors of the human cytomegalovirus (HCMV)
Details: HFF cells, HCMV-luciferase reporter, 72 h; at 57.5 µM; active compounds read low
How it was run: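 Human foreskin fibroblasts infected with luciferase-reporter HCMV at MOI 1 PFU/cell, compounds at two doses. Luciferase measured 72 h post infection; normalized to buffer-only basal and Salinomycin (10uM) controls.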
In the case of `Cc1cc(C)c(S(=O)(=O)NCC23C=CC(O2)C2C(=O)N(c4ccccc4)C(=O)C23)c(C)c1` (configuration not stated), the activity change, negative = inhibition is reported as inactive: -14.1%. For `CN1CCN(c2ccccc2NC(=O)Cn2ncc3c([nH]c4ccccc43)c2=O)CC1`, the activity change, negative = inhibition was inconclusive: -55.7%. In the case of `OC(c1ccc(F)cc1)c1nc(-c2cc3ccccc3o2)cs1` (configuration not stated), the activity change, negative = inhibition is reported as inactive: 104%. For `O=C1ON=C(c2ccccc2)/C1=C/c1ccc(-c2ccccc2[N+](=O)[O-])o1`, the activity change, negative = inhibition was active: -98.1%. For `COc1cc(/C=C2\SC(=S)N(C(C(=O)O)c3ccccc3)C2=O)ccc1O` (configuration not stated), the activity change, negative = inhibition was inconclusive: -44.6%. With `CSc1ccc(CN2CCN(C(=O)c3ccncc3)CC2)cc1` the activity change, negative = inhibition was inconclusive: -49.5%. In the case of `CC(C)(C)OC(=O)N1CCC(c2c(C(=O)N3CCN(c4ccccn4)CC3)cnn2-c2ccccc2Cl)CC1`, the activity change, negative = inhibition is reported as inconclusive: 0%. With `CCCCC(CC)CNC(=O)c1cccs1` (configuration not stated) the activity change, negative = inhibition was inconclusive: -44.8%. For `Cc1nc2ccccc2n1CCOc1ccccc1`, the activity change, negative = inhibition was inconclusive: -55.2%. In the case of `N/C(=N\c1nc2ccccc2o1)NC(=O)c1cccc(Br)c1`, the activity change, negative = inhibition is reported as inconclusive: -42.1%. With `CCOc1ccc(-n2c(C)cc(/C=N\NC(=O)CC(=O)NC3CCCCC3)c2C)cc1` the activity change, negative = inhibition was active: -81.1%. With `CCOc1cc(NC(=S)NCc2ccco2)c(OCC)cc1NC(C)=O` the activity change, negative = inhibition was inconclusive: -52.5%. For `c1ccn(-c2ncnc3sc4c(c23)CCCC4)c1`, the activity change, negative = inhibition was inconclusive: -47.5%. In the case of `CCCNC(=S)Nc1ccccc1`, the activity change, negative = inhibition is reported as active: -64.9%. For `COc1ccc(CNc2nc3ccccc3n2CCN2CCCCC2)c(OC)c1`, the activity change, negative = inhibition was inconclusive: -43.2%. For `CCOC(=O)N1CCN(S(=O)(=O)c2ccc(C(=O)N(CCN(C)C)c3nc4ccc(CC)cc4s3)cc2)CC1`, the activity change, negative = inhibition was inactive: -38.9%. In the case of `COC(=O)C1=C(C)NC2=C(C(=O)CCC2)C1c1cn(Cc2ccc(Br)cc2)nc1-c1ccccc1` (configuration not stated), the activity change, negative = inhibition is reported as inconclusive: -49.6%. For `O=C(O)c1ccccc1-c1ccccc1C(=O)NNc1ccc([N+](=O)[O-])cc1`, the activity change, negative = inhibition was inconclusive: -45.9%. In the case of `Cc1cc(C(=O)N2CCCC(CO)(Cc3ccc(F)cc3F)C2)nn1C` (configuration not stated), the activity change, negative = inhibition is reported as inconclusive: -51.3%. In the case of `c1ccc(N2CCOCCOCCOCCOCC2)cc1`, the activity change, negative = inhibition is reported as inactive: 43.9%. For `CC(=O)c1ccc(-c2ccc(C(=O)N3CCCc4ccccc43)o2)cc1`, the activity change, negative = inhibition was inconclusive: -59.1%. In the case of `Cc1nc(=O)c(-c2ccccc2)c(C)n1CC1CCCO1` (configuration not stated), the activity change, negative = inhibition is reported as inconclusive: -52.7%. For `COC(=O)c1ccc(C)c(NC(=O)CCCN2C(=O)NC(C)(C)C2=O)c1`, the activity change, negative = inhibition was inconclusive: -53.8%. With `CCS(=O)(=O)c1ccc(OC)c(N=Nc2ccc(O)c3ncccc23)c1` the activity change, negative = inhibition was inconclusive: -49.8%. With `Fc1cccc(-c2ccc3c(c2)CN(c2cccc(Cl)c2)Cc2cnnn2-3)c1` the activity change, negative = inhibition was inconclusive: -58.6%. With `O=C(c1ccc2c(c1)CCN2S(=O)(=O)c1ccc(Cl)cc1)N1CCN(c2ccccc2)CC1` the activity change, negative = inhibition was inactive: -20.5%. With `COc1ccc(/C=N/Nc2ccc([N+](=O)[O-])cc2S(=O)(=O)N2CCN(C)CC2)cc1` the activity change, negative = inhibition was inconclusive: -52%. With `O=C(Cc1ccc(NC(=O)C2CCCN(C(=O)C3CCC3)C2)cc1)Nc1ccc(C(=O)N2CCOCC2)cc1` (configuration not stated) the activity change, negative = inhibition was inactive: 41.1%. With `COc1ccccc1OCC(=O)NNC(=O)Nc1ccc(Cl)cc1` the activity change, negative = inhibition was active: -63.8%. In the case of `COc1ccc(Cl)cc1C(=O)NNC(=O)c1cccc([N+](=O)[O-])c1`, the activity change, negative = inhibition is reported as inconclusive: -47.9%. In the case of `COc1ccc([C@H]2CC(=O)C=C(c3ccnc4ccc(Cl)cc34)C2)cc1`, the activity change, negative = inhibition is reported as active: -77.8%. For `COc1ccc(Cl)cc1N(CC(=O)NCCSCc1ccccc1)S(C)(=O)=O`, the activity change, negative = inhibition was inconclusive: -49.3%. With `CCCCCCN1C=CC(=C2C(=O)c3ccccc3C2=O)C=C1` the activity change, negative = inhibition was active: -66.4%. For `CN(C)c1ccc(C(=O)N/N=C/c2ccccn2)cc1`, the activity change, negative = inhibition was inactive: 85.3%. For `Cc1cc(NC(=O)CSc2nc3cc(Cl)ccc3c(=O)n2Cc2ccco2)no1`, the activity change, negative = inhibition was inconclusive: -42.8%. With `COc1cc(CNn2nnnc2N)cc(Br)c1OCc1c(Cl)cccc1Cl` the activity change, negative = inhibition was active: -69.6%. In the case of `CCC(=O)Nc1nc2ccccc2n1Cc1ccccc1`, the activity change, negative = inhibition is reported as active: -91.7%. For `Cc1c(C(=O)NCCNc2ncc(C(F)(F)F)cc2Cl)cccc1[N+](=O)[O-]`, the activity change, negative = inhibition was inactive: -7.78%. For `CCN1CCN(CC2COc3ccccc3O2)CC1` (configuration not stated), the activity change, negative = inhibition was active: -64%. In the case of `CN1CCN(C(=O)C2CCN(S(=O)(=O)c3cnc[nH]3)CC2)CC1`, the activity change, negative = inhibition is reported as inactive: 15.7%. With `Cc1nc2c(sc3nc(N4CCOCC4)c4c(c32)CC(C)(C)OC4)c(-c2ccc(Cl)cc2)c1C(=O)O` the activity change, negative = inhibition was inactive: -25.6%. For `Cc1ccc(CN2CCN(C3CCN(C(=O)c4ccc(C)cc4)CC3)C(=O)C2=O)cc1`, the activity change, negative = inhibition was inactive: 10.5%. In the case of `CCN(CC)c1ccc(/C=N/NC(=O)c2cnccn2)cc1`, the activity change, negative = inhibition is reported as inconclusive: -54%. In the case of `Cn1c(CO)cnc1SCC(=O)c1ccc(Cl)cc1`, the activity change, negative = inhibition is reported as inconclusive: -53.4%. In the case of `Oc1ccccc1C1CC(c2cccs2)=NC(c2ccc(Cl)cc2)N1` (configuration not stated), the activity change, negative = inhibition is reported as active: -70.1%. For `CCOc1cccc(/C=N/NC(=O)c2cc(C3CC3)[nH]n2)c1O`, the activity change, negative = inhibition was active: -90%. In the case of `O=C(Nc1ccccc1C(=O)Nc1nnc(C(F)(F)F)s1)c1ccccc1Cl`, the activity change, negative = inhibition is reported as active: -103%. In the case of `CS(=O)(=O)c1ccc(C(=O)N2CCN(Cc3ccccc3)CC2)cc1`, the activity change, negative = inhibition is reported as inconclusive: -42.7%. For `COc1ccc(C(=O)N/C(=C\c2cn(S(=O)(=O)N(C)C)c3ccccc23)C(=O)N2CCN(C)CC2)cc1OC`, the activity change, negative = inhibition was inactive: -13.2%. With `CC(=C\C(=O)O)/C(=C/c1ccc(C)o1)C(=O)O` the activity change, negative = inhibition was inconclusive: -45.3%. With `CCCCC1C(=O)N(c2ccccc2)N(c2ccccc2)C1=O` the activity change, negative = inhibition was inconclusive: -43.4%. With `COc1cc(-c2nnc(CSc3nnc(Nc4ccc(Oc5ccccc5)cc4)s3)o2)cc(OC)c1OC` the activity change, negative = inhibition was inconclusive: -40.3%. With `CC(C)(C)NC(=O)CSc1nc2ccccc2n1-c1ccccc1` the activity change, negative = inhibition was inconclusive: -59.8%. In the case of `CCCC(CCC)C(=O)Nc1cccc(-c2nc3cccnc3s2)c1`, the activity change, negative = inhibition is reported as inconclusive: -40.7%. With `c1ccc(-c2[nH]c(-c3ccccc3)[n+](CC3CO3)c2-c2ccccc2)cc1` (configuration not stated) the activity change, negative = inhibition was inconclusive: -54.2%. In the case of `CCCC(C(=O)NC1CCCC1)N(C(=O)c1snc(C(N)=O)c1N)c1ccc(OCC)cc1` (configuration not stated), the activity change, negative = inhibition is reported as inconclusive: -48.1%. For `O=C(Nc1nc2c(s1)CCCC2)c1cccs1`, the activity change, negative = inhibition was inactive: 0.413%. With `Clc1ccc(N2CCNCC2)nn1` the activity change, negative = inhibition was inconclusive: -58.9%. For `CC(C)CCNC(=O)C1CCN(S(=O)(=O)c2cccc3nsnc23)CC1`, the activity change, negative = inhibition was inactive: 12.1%. With `CCc1ccc(-c2cc(C)no2)cc1S(=O)(=O)Nc1ccc(C)cn1` the activity change, negative = inhibition was inactive: 0% and inactive: 22.1%. For `CC(=O)CCC(=O)NC1CCCc2c1cnn2-c1ccc(C(C)(C)C)cc1` (configuration not stated), the activity change, negative = inhibition was inconclusive: -49.4%. For `COc1cccc(C(=O)Nc2ccc(-n3nncc3C(C)(C)C)cc2)c1`, the activity change, negative = inhibition was inconclusive: -57.3%. For `CCOC(=O)c1c(C2CC2)csc1NC(C)=O`, the activity change, negative = inhibition was active: -64.9%. With `Cc1ccc(-c2csc3ncnc(SCC(=O)c4ccc5c(c4)OCCO5)c23)cc1` the activity change, negative = inhibition was inconclusive: -45%. With `CC1CCC(C(C)C)C(OC(=O)Cn2c(-c3ccc(Cl)cc3)[n+](C)c3ccccc32)C1` (configuration not stated) the activity change, negative = inhibition was active: -100%. For `OCc1nc2c(ccc3ccccc32)[nH]1`, the activity change, negative = inhibition was inactive: 49.2%. For `Cc1c(Cl)c([N+](=O)[O-])nn1CCCC(=O)Nc1cccnc1`, the activity change, negative = inhibition was inconclusive: -40.3%. For `O=c1[nH]c2ccccc2cc1CN(CC1CCCO1)S(=O)(=O)c1ccc(Cl)cc1` (configuration not stated), the activity change, negative = inhibition was inconclusive: -46.6%. In the case of `CS(=O)(=O)c1ccc(NC(=O)CCN2C(=O)C3CCCCC3C2=O)cc1` (configuration not stated), the activity change, negative = inhibition is reported as inactive: -9.17%. For `COc1ccc(OC)c(NC(=O)Cc2c(C)n(C(=O)c3ccc(Cl)cc3)c3ccc(OC)cc23)c1`, the activity change, negative = inhibition was active: -70.7%. For `Cc1cccc(-n2c(-c3ccc([N+](=O)[O-])cc3)nc3ccccc3c2=O)c1`, the activity change, negative = inhibition was inconclusive: -59.9%. For `Cc1c(N2C(=O)/C(=C/c3ccccc3)SC2=S)c(=O)n(-c2ccccc2)n1C`, the activity change, negative = inhibition was inconclusive: -49.2%. For `CCC(C(=O)Nc1ccccc1F)n1nc(C)c2c(C)n(-c3ccccc3)nc2c1=O` (configuration not stated), the activity change, negative = inhibition was inconclusive: -47.7%. In the case of `OC(CNCCc1ccc(C(F)(F)F)cc1)COc1ccc2ccccc2c1` (configuration not stated), the activity change, negative = inhibition is reported as inactive: -33.7%. For `Cc1nn(-c2ccccc2)c2nc(C3CC3)cc(C(=O)NCc3ccccc3Cl)c12`, the activity change, negative = inhibition was inconclusive: -41.1%. In the case of `CCOc1cc(C(=O)NN=C2CCCC2)cc(OCC)c1OCC`, the activity change, negative = inhibition is reported as active: -75.9%. For `Cc1nn(-c2ccccc2)c(Cl)c1/C=N/NC(=O)c1ccc(CNc2ccccc2)o1`, the activity change, negative = inhibition was inconclusive: -59.3%. For `CC(C)Nc1ccc(-c2nc(-c3ccccn3)no2)cc1[N+](=O)[O-]`, the activity change, negative = inhibition was inactive: 39.4%. In the case of `CC(C)C(=O)N1CCN(c2ccc(NC(=O)COc3ccccc3[N+](=O)[O-])cc2)CC1`, the activity change, negative = inhibition is reported as inconclusive: -48.4%. For `CCCCCN1C(C(=O)c2ccccc2)=C(NC(C)=O)c2ccccc2S1(=O)=O`, the activity change, negative = inhibition was active: -70%. In the case of `N#Cc1nc(-c2ccc(OCc3ccc(Cl)cc3)cc2)oc1N1CCC(C(N)=O)CC1`, the activity change, negative = inhibition is reported as inactive: -17.7%. In the case of `COC(=O)C1=C(C)C(c2ccc(OC)cc2OC)NC(=O)N1` (configuration not stated), the activity change, negative = inhibition is reported as inactive: -5.22%. In the case of `Cc1ccc(C23CC4CC(CC(C(=O)NC(C)C(N)=O)(C4)C2)C3)cc1` (configuration not stated), the activity change, negative = inhibition is reported as inconclusive: 0%. For `CC1=CCC2COC(c3ccc[n+](Cc4ccccc4)c3)C1C2` (configuration not stated), the activity change, negative = inhibition was inconclusive: -41.6%. In the case of `COc1cccc(CNc2nc3c(-c4cccc(C)c4)nnn3c3ccccc23)c1`, the activity change, negative = inhibition is reported as inactive: 63.1%. In the case of `CCOC(=O)N=Nc1c2ccccc2c2nc3no[nH]c3nc12`, the activity change, negative = inhibition is reported as active: -100%. With `CC(=O)c1ccc(NC(=S)NN2C(C)CCCC2C)cc1` (configuration not stated) the activity change, negative = inhibition was inconclusive: -41.6%.

Source: PubChem BioAssay AID1259415 (National Center for Advancing Translational Sciences (NCATS), 2018)
On the % scale 0 is the no-effect control and ±100 the full control effect.
